In assay [1] the target is T1, FLAG-BCL-3 (in Nfkb1-/- MEFs) (UniProt P20749).
T1 sequence: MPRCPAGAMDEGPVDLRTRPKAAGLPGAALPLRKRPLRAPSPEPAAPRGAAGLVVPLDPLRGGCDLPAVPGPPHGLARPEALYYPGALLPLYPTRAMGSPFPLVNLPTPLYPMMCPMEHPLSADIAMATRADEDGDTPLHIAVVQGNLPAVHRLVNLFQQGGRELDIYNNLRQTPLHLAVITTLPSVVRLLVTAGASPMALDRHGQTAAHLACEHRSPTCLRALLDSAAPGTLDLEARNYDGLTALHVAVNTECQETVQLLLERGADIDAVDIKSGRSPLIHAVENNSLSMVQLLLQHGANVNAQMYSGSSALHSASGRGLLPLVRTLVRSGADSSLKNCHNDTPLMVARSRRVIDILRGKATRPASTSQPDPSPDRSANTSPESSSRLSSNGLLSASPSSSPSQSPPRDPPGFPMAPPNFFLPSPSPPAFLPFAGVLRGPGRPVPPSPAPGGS
Description: co-IP; Nfkb1-/- MEFs transfected 24 h, pretreated with 20 uM MG132 for 2 h; FLAG-BCL-3 immunoprecipitated, immunoblot with anti-TPL-2 antibody.

Protein sequences, listed by entry. Tags and fused reporters are not part of them.
UniProt P41279: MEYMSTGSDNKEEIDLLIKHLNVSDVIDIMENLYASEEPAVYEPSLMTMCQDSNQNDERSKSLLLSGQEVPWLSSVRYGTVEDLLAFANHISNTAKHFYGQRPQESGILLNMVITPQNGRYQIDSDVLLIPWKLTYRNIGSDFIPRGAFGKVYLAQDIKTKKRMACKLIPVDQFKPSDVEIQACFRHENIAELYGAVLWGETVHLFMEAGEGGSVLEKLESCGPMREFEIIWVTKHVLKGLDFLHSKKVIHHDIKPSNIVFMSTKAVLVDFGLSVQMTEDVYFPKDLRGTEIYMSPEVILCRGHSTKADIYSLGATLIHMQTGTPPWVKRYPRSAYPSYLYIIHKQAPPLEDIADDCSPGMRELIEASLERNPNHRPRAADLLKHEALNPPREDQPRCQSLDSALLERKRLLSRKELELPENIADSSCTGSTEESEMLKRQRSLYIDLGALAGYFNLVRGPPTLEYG
UniProt Q63562: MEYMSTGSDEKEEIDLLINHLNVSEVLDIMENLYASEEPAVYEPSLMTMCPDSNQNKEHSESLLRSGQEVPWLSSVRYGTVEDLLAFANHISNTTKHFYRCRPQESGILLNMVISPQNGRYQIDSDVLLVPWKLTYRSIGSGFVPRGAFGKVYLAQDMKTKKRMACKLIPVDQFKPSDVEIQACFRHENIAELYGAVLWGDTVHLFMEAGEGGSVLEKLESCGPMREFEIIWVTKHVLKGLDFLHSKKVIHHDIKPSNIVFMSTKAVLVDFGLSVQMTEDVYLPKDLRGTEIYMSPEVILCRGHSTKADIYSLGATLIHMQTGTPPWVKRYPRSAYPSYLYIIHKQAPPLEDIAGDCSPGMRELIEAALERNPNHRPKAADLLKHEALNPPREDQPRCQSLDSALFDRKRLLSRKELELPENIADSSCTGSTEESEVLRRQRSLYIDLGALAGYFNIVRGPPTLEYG

A further assay concerns the target T2, FLAG-BCL-3 (UniProt P20749).
T2 sequence: T1 sequence
Kind of assay: co-IP; HEK293T cells transfected 24 h; FLAG-BCL-3 immunoprecipitated, immunoblot with anti-TPL-2 antibody. A general note: A western blot detects proteins with antibodies after separation by electrophoresis.

For assay [2], the target named is endogenous TPL-2 (human (endogenous in THP-1)) (UniProt P41279). Description: co-IP; THP-1 lysates; endogenous TPL-2 immunoprecipitated, immunoblot with anti-BCL-3 antibody; immunizing TPL-2 peptide as specificity control.

This passage reports binding results from PMC6926074.

Results are given in words; binding and its absence hold for the method and conditions named. In cells and extracts the contact can be indirect. Some entries that bind do so weakly or less than the wild type. For part of these data: Where a sequence is shown, tags or fusion partners need not be part of it.

Consider “TPL-2 (in Nfkb1-/- MEFs) (from UniProt Q63562 1-467) (enzyme)”, for which the binding result in assay [1] was “binds”.

On to “TPL-2 (from UniProt Q63562 1-467) (enzyme)”, for which, in the assay with FLAG-BCL-3, the binding entry is listed as “binds”.

B1: endogenous BCL-3 (protein, UniProt P20749 1-454)
chain: T1 sequence
In the case of B1, the binding result in assay [2] was “binds”.
